In the supplement of paper PMC9015667:
Where a name gives a salt, the structure may show the parent alone. This is one part of the list. Many values rest on one well or one pass, so single values are uncertain.

Assays:
Assay in all cases: reduction in cell viability relative to untreated/vehicle; higher = more growth inhibition
Details in all cases: 200 nM; 72 h
[1] = system: M229P (parental melanoma line)
[2] = system: M229R (matched melanoma line resistant to BRAF inhibitors)
[3] = system: M238P (parental melanoma line)
[4] = system: M238R (matched melanoma line resistant to BRAF inhibitors)
[5] = system: M249P (parental melanoma line)
[6] = system: M249R (matched melanoma line resistant to BRAF inhibitors)
[7] = system: UACC62P (parental melanoma line)
[8] = system: UACC62R (matched melanoma line resistant to BRAF inhibitors)

| Compound | reduction in cell viability [1] [%] | reduction in cell viability [2] [%] | reduction in cell viability [3] [%] | reduction in cell viability [4] [%] | reduction in cell viability [5] [%] | reduction in cell viability [6] [%] | reduction in cell viability [7] [%] | reduction in cell viability [8] [%] |
| --- | --- | --- | --- | --- | --- | --- | --- | --- |
| CN1CCN(c2cc(C(=O)Nc3ccc4c(c3)-c3c(c(C(N)=O)nn3-c3ccc(F)cc3)CC4)c(Cl)cn2)CC1 | < 0 | < 0 | < 0 | < 0 | < 0 | < 0 | < 0 | < 0 |
| CN(C)C[C@@H]1CCn2cc(c3ccccc32)C2=C(C(=O)NC2=O)c2cn(c3ccccc23)CCO1 [Ruboxistaurin mesilate] | < 0 | < 0 | 6.22 | < 0 | 5.1 | < 0 | 25.2 | < 0 |
| O=C(NC[C@H]1CN(c2ccc(N3CCOCC3=O)cc2)C(=O)O1)c1ccc(Cl)s1 [Rivaroxaban] | < 0 | < 0 | < 0 | < 0 | < 0 | < 0 | < 0 | < 0 |
| COc1cccc(-c2cc(=O)c3ccccc3o2)c1N | < 0 | < 0 | < 0 | < 0 | < 0 | < 0 | 2.06 | < 0 |
| O=C1NC(=O)/C(=C/c2cccc(C(F)(F)F)c2)S1 | < 0 | < 0 | < 0 | < 0 | < 0 | 0.68 | < 0 | < 0 |
| CC[C@H](C)n1cc(C)c2c(C(=O)NCc3c(C)cc(C)[nH]c3=O)cc(-c3ccc(N4CCNCC4)nc3)cc21 | 6.78 | < 0 | < 0 | < 0 | < 0 | < 0 | < 0 | < 0 |
| CC(c1cc2ccccc2s1)N(O)C(N)=O (stereo not given) [Zileuton] | < 0 | < 0 | < 0 | < 0 | < 0 | < 0 | < 0 | < 0 |
| CN1CCCN(C(=O)c2cccc(-c3ccc(/C=C4/C(=O)Nc5ccc(Cl)cc54)o3)c2)CC1 | 11.5 | < 0 | 38.9 | 4.36 | 18.3 | 23.6 | 31.7 | 65.3 |
| Nc1ncnc2c1c(-c1cccc(OCc3ccccc3)c1)cn2C1CC(CN2CCCC2)C1 (stereo not given) | < 0 | 22.9 | 6.29 | < 0 | < 0 | < 0 | < 0 | < 0 |
| CN(C)c1nc(N(C)C)nc(N(C)C)n1 [Altretamine] | < 0 | < 0 | < 0 | < 0 | < 0 | < 0 | < 0 | < 0 |
| C[C@@]12C[C@@]3(O)O[C@@H](O1)[C@]1(COC(=O)c4ccccc4)[C@H]3C[C@@]12O[C@@H]1O[C@H](CO)[C@@H](O)[C@H](O)[C@H]1O [Paeoniflorin] | < 0 | < 0 | < 0 | < 0 | < 0 | < 0 | < 0 | < 0 |
| CCC1(c2ccccc2)C(=O)NCNC1=O [Primidone] | < 0 | < 0 | < 0 | < 0 | < 0 | < 0 | < 0 | < 0 |
| COc1cc2c(Nc3ccc(Cl)c(Cl)c3F)ncnc2cc1OC[C@@H]1C[C@@H]2CN(C)C[C@@H]2C1 | < 0 | < 0 | < 0 | < 0 | < 0 | < 0 | < 0 | < 0 |
| CN1C(=O)C[C@@H](C(=O)N[C@@H](Cc2c[nH]cn2)C(=O)N2CCC[C@H]2C(N)=O)NC1=O [Taltirelin] | < 0 | < 0 | < 0 | < 0 | < 0 | 5.26 | 7.87 | < 0 |
| CC(C)(Sc1cc(C(C)(C)C)c(O)c(C(C)(C)C)c1)Sc1cc(C(C)(C)C)c(O)c(C(C)(C)C)c1 [Probucol] | < 0 | < 0 | < 0 | < 0 | < 0 | < 0 | < 0 | < 0 |
| N=C(N)NC(=N)NCCc1ccccc1 [Phenformin hydrochloride] | < 0 | < 0 | < 0 | 29.5 | < 0 | < 0 | < 0 | < 0 |
| NC(=O)c1cccc2[nH]c(-c3ccc(C4CCCN4)cc3F)nc12 (stereo not given) | < 0 | < 0 | < 0 | < 0 | < 0 | < 0 | < 0 | < 0 |
| Nc1nc(=O)n([C@@H]2CS[C@H](CO)O2)cc1F [Emtricitabine] | < 0 | < 0 | < 0 | < 0 | < 0 | < 0 | < 0 | < 0 |
| C/C=C1\NC(=O)[C@H]2CSSCC/C=C/[C@H](CC(=O)N[C@H](C(C)C)C(=O)N2)OC(=O)[C@H](C(C)C)NC1=O [Romidepsin] | 88 | 82.7 | 82.7 | 82.4 | 87.6 | 91.4 | 83.8 | 82.8 |
| Cc1nc(N)ncc1-c1nc(N2CCOCC2)c2sc(C(C)(C)O)cc2n1 | 0.99 | 4.89 | 30.8 | 29.5 | < 0 | 1.99 | 25 | < 0 |

3 structures out of the list, arranged by number of heavy atoms, falling:

| Compound | reduction in cell viability [1] [%] | reduction in cell viability [2] [%] | reduction in cell viability [3] [%] | reduction in cell viability [4] [%] | reduction in cell viability [5] [%] | reduction in cell viability [6] [%] | reduction in cell viability [7] [%] | reduction in cell viability [8] [%] |
| --- | --- | --- | --- | --- | --- | --- | --- | --- |
| CN1CCN(c2cc(C(=O)Nc3ccc4c(c3)-c3c(c(C(N)=O)nn3-c3ccc(F)cc3)CC4)c(Cl)cn2)CC1 | < 0 | < 0 | < 0 | < 0 | < 0 | < 0 | < 0 | < 0 |
| CC[C@H](C)n1cc(C)c2c(C(=O)NCc3c(C)cc(C)[nH]c3=O)cc(-c3ccc(N4CCNCC4)nc3)cc21 | 6.78 | < 0 | < 0 | < 0 | < 0 | < 0 | < 0 | < 0 |
| COc1cccc(-c2cc(=O)c3ccccc3o2)c1N | < 0 | < 0 | < 0 | < 0 | < 0 | < 0 | 2.06 | < 0 |

(continued)

| Compound | reduction in cell viability [1] [%] | reduction in cell viability [2] [%] | reduction in cell viability [3] [%] | reduction in cell viability [4] [%] | reduction in cell viability [5] [%] | reduction in cell viability [6] [%] | reduction in cell viability [7] [%] | reduction in cell viability [8] [%] |
| --- | --- | --- | --- | --- | --- | --- | --- | --- |
| Oc1cccc(-c2nc(N3CCOCC3)c3oc4ncccc4c3n2)c1 | 20.6 | 38.5 | 69.5 | 60 | 38.2 | 30.9 | 50.5 | 32.5 |
| O=C(N[C@H](CO)[C@H](O)c1ccc([N+](=O)[O-])cc1)C(Cl)Cl [Chloramphenicol] | 12.9 | < 0 | < 0 | < 0 | < 0 | 6.97 | < 0 | < 0 |
| COc1ccc(C(C)=O)c(O)c1 [Paeonol] | < 0 | < 0 | < 0 | < 0 | < 0 | < 0 | 3.03 | < 0 |
| O=C(Nc1c[nH]nc1-c1nc2ccc(CN3CCOCC3)cc2[nH]1)NC1CC1 | < 0 | 20.4 | 19.6 | 38.3 | < 0 | < 0 | 4.98 | 41.2 |
| CCCCc1oc2ccc(NS(C)(=O)=O)cc2c1C(=O)c1ccc(OCCCN(CCCC)CCCC)cc1 [Dronedarone] | < 0 | < 0 | < 0 | < 0 | < 0 | 4.16 | 0.69 | < 0 |
| CC(=O)Nc1sc2c(c1-c1nc3ccccc3s1)CNC2 | < 0 | < 0 | < 0 | < 0 | < 0 | < 0 | < 0 | < 0 |
| CSc1cccc(Nc2ncc3cc(-c4c(Cl)cccc4Cl)c(=O)n(C)c3n2)c1 | < 0 | 4.13 | 23.5 | 2.92 | < 0 | < 0 | 5.72 | 14.1 |
| CC(C)Oc1ccc2c(=O)c(-c3ccccc3)coc2c1 [Ipriflavone] | < 0 | < 0 | < 0 | < 0 | < 0 | < 0 | 6.86 | < 0 |
| C[C@](Cc1c[nH]c2ccccc12)(NC(=O)OC1[C@H]2C[C@@H]3C[C@@H](C[C@H]1C3)C2)C(=O)NC[C@H](NC(=O)CCC(=O)O)c1ccccc1 (stereo not given in full) | < 0 | < 0 | 3.17 | < 0 | < 0 | < 0 | < 0 | < 0 |
| CNNCc1ccc(C(=O)NC(C)C)cc1 [Procarbazine hydrochloride] | < 0 | < 0 | < 0 | < 0 | < 0 | < 0 | < 0 | 4.73 |
| OC(CN1CCC(Cc2ccc(F)cc2)CC1)c1ccc(Cl)cc1 (stereo not given) [Eliprodil] | < 0 | < 0 | < 0 | < 0 | < 0 | < 0 | < 0 | < 0 |
| CCOC(=O)C1=C[C@]2(CC)CCCN3CCc4c(n1c1ccccc41)[C@@H]32 [Vinpocetine] | 0.6 | < 0 | < 0 | < 0 | < 0 | < 0 | < 0 | < 0 |
| C1COC(NC(C2CC2)C2CC2)=N1 [Rilmenidine] | < 0 | < 0 | < 0 | < 0 | < 0 | < 0 | 2.37 | < 0 |
| O=C(O)c1cc(=O)c2c(OCC(O)COc3cccc4oc(C(=O)O)cc(=O)c34)cccc2o1 [Sodium cromoglycate] | < 0 | < 0 | < 0 | < 0 | < 0 | < 0 | < 0 | < 0 |
| COc1cc(F)c(C(C)C)cc1-c1ccc(C(F)(F)F)cc1CN1C(=O)O[C@H](c2cc(C(F)(F)F)cc(C(F)(F)F)c2)[C@@H]1C [Anacetrapib] | < 0 | < 0 | < 0 | < 0 | < 0 | < 0 | < 0 | < 0 |
| C[C@@H]1COC(Nc2ccc3ncnc(Nc4ccc(OCc5nccs5)c(Cl)c4)c3c2)=N1 [Varlitinib tosylate] | < 0 | < 0 | < 0 | < 0 | < 0 | < 0 | < 0 | < 0 |
| Clc1ccc(C(c2ccc(Cl)cc2)[n+]2ccn(CC(OCc3ccc(Cl)cc3Cl)c3ccc(Cl)cc3Cl)c2)cc1 (stereo not given) [Calmidazolium chloride] | < 0 | < 0 | < 0 | < 0 | < 0 | < 0 | < 0 | < 0 |
| c1cc(-c2cnn3cc(-c4ccc(OCCN5CCCCC5)cc4)cnc23)ccn1 [Dorsomorphin] | < 0 | < 0 | < 0 | < 0 | < 0 | < 0 | 1.86 | < 0 |
| Cc1cc(O)c2c3c4c(cc(O)c13)C(C)(C)C(=O)c1c(O)cc(O)c(c1-4)C2=O [Resistomycin] | < 0 | < 0 | < 0 | < 0 | < 0 | < 0 | 2.49 | < 0 |
| CN(C)CCC(c1ccc(Cl)cc1)c1ccccn1 (stereo not given) [Chlorphenamine maleate] | < 0 | < 0 | < 0 | < 0 | < 0 | < 0 | < 0 | < 0 |
